Measurements: US11365183B2, “Eicosanoid derivatives” (MAX-DELBRUECK-CENTRUM FUER MOLEKULARE MEDIZIN, priority 2009, dated 2022)
Some entries share one result that the patent states for a list of compounds.

What follows are compounds tested on neonatal rat cardiomyocytes (NRCMs) (assay: Chronotropic effect on spontaneous beating rate of cultured neonatal rat cardiomyocytes (identification of agonists)). Details: 30 nM, incubation time 5 min.
Format: cell-based
Description: This negative chronotropic effect reflects the capacity of the analogs to interact with and to activate a G-protein coupled receptor or other primary cellular targets that reduce the contractility of cardiomyocytes under basal and stress-induced conditions.
The compounds included EPA and 17,18-EETeTr (compounds 01 and 02; purchased from Cayman Chemical) as well as all but one (compound 16) of the analogs synthesized as described in examples 1-24. The R,S— and S,R-enantiomers of 17,18-EETeTr (compounds 03 and 04) were prepared resolving the racemic mixture (compound 02) by means of chiral-phase HPLC as described previously (Barbosa-Sicard E, Markovic M, Honeck H, Christ B, Muller D N, Schunck W H. Biochem Biophys Res Commun. 2005 Apr. 22; 329(4):1275-81). Before use, the compounds to be tested were prepared as 1000-fold stock solutions in ethanol.
Isolation and cultivation of NRCMs were performed as described previously (Wallukat, G; Wollenberger, A. Biomed Biochim Acta. 1987; 78:634-639; Wallukat G, Homuth V, Fischer T, Lindschau C, Horstkamp B, Jupner A, Baur E, Nissen E, Vetter K, Neichel D, Dudenhausen J W, Haller H, Luft F C. J Clin Invest. 1999; 103: 945-952). Briefly, neonatal Wistar rats (1-2 days old) were killed in conformity to the recommendations of the Community of Health Service of the City of Berlin and the cardiomyocytes were dissociated from the minced ventricles with a 0.2% solution of crude trypsin. The isolated cells were then cultured as monolayers on the bottom (12.5 cm^2) of Falcon flasks in 2.5 ml of Halle S M 20-I medium equilibrated with humidified air. The medium contained 10% heat-inactivated FCS and 2 μmol/l fluoro-deoxyuridine (Serva, Heidelberg, Germany), the latter to prevent proliferation of non-muscle cells. The NRCMs (2.4×10^6 cells/flask) were cultured at 37° C. in an incubator. After 5 to 7 days, the NRCMs formed spontaneously beating cell clusters. […] On the day of the experiment, the culture medium was replaced by 2.0 ml fresh serum-containing medium. Two hours later, the beating rates were monitored at 37° C. using an inverted microscope equipped with a heating stage. To determine the basal rate, 6 to 8 individual clusters were selected and the number of contractions was counted for 15 sec. After that, the compound to be tested was added to the culture and the beating rate of the same clusters was monitored 5 min later again. Based on the difference between the basal and compound-induced beating rate of the individual clusters, the chronotropic effects (Δ beats/min) were calculated and are given as mean±SE values. N refers to the number of clusters monitored which originated, in general, from at least three independent NRCM cultures.
This effect was fully expressed using an EPA concentration of 3.3 μM and an incubation time of 30 min. In contrast, 17,18-EETeTr (C02) produced the same effect almost immediately and already in the low nanomolar range (EC50 of 1-2 nM, data not shown). To compare the activity of 17,18-EETeTr with that of its synthetic analogs, all these compounds were tested at a final concentration of 30 nM and using an incubation time of 5 min.

| Compound | alteration of the beating rate of NRCMs (no significant agonistic effects) |
| --- | --- |
| CCC1OC1C/C=C\CCCCCCC/C=C\CCCC(=O)O (stereo not shown) [Compound C1, (5Z,14Z)-16-(3-Ethyloxirane-2-yl)hexadeca-5,14-dienoic acid] | less than 5 beats per min |
| CCC1OC1C/C=C\CCCC/C=C\CCCCCCC(=O)O (stereo not shown) [Compound C3, (8Z,14Z)-16-(3-Ethyloxirane-2-yl)hexadeca-8,14-dienoic Acid] | less than 5 beats per min |
| CCC1OC1C/C=C\CCCCCCCCCCCCC(=O)O (stereo not shown) [Compound C5, 16-[(Z)-3-Ethyloxiranyl]hexadec-14(Z)-enoic Acid] | less than 5 beats per min |
| CCC1OC1CCCCCCC/C=C\CCCCCCC(=O)O (stereo not shown) [Compound C6, 16-[(Z)-3-Ethyloxiranyl]hexadec-8(Z)-enoic Acid] | less than 5 beats per min |
| CCC1OC1CCCCCCCCCC/C=C\CCCC(=O)O (stereo not shown) [Compound C7, 16-[(Z)-3-Ethyloxiranyl]hexadec-5(Z)-enoic Acid] | less than 5 beats per min |
| CCC1OC1CCCCCCCCCCCCCCCC(=O)O (stereo not shown) [Compound C8, 16-[(Z)-3-Ethyloxiranyl]hexadecanoic Acid] | less than 5 beats per min |
| CNC(=O)C(=O)NC/C=C\CCCCCCCCCCCCC(=O)O [Compound C23, 16-(2-(Methylamino)-2-oxoacetamido) hexadec-14(Z)-enoic acid] | less than 5 beats per min |
